Data reported in the M2OR odorant receptor database.
This is a selection; strong and weak results do not stand in their true shares. Calls are pooled over several reports, among them a noisy single-well screen. The list shows a part of the results.

Legend:
Conditions in all cases: stereoisomer not certain
OR8U9 = tested on: T1, OR8U9
T1 sequence (whole entry): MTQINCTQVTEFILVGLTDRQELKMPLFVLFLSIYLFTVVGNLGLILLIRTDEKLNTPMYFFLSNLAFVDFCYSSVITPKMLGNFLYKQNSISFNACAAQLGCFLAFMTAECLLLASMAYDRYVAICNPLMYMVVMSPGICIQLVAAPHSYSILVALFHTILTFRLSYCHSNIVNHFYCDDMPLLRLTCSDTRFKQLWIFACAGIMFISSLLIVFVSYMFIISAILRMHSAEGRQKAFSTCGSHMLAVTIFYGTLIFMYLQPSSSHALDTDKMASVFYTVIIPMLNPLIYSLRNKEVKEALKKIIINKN
How it was run: (§1)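 Assay methods differ from source to source, frequently being transient luciferase assays in mammalian cell lines. For each receptor–molecule pair, the label responsive (active) applies when the original authors judged the measured signal statistically different from baseline, and non-responsive (inactive) applies otherwise.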

OR9A2 (Homo sapiens) = OR9A2 (Homo sapiens) (UniProt Q8NGT5)
How it was run: as §1

OR9A2 = tested on: T2, OR9A2
T2 sequence (whole entry): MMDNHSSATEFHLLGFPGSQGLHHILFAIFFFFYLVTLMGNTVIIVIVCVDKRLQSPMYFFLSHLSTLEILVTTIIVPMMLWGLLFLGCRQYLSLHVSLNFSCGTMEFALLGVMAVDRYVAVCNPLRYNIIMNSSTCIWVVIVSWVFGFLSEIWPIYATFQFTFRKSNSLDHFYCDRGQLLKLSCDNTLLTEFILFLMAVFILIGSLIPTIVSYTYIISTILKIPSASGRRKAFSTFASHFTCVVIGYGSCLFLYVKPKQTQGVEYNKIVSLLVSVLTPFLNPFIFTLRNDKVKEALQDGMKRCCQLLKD
How it was run: as §1

OR9A4 (Homo sapiens) = molecular target: T3, OR9A4 (Homo sapiens) (UniProt Q8NGU2)
T3 sequence (whole entry): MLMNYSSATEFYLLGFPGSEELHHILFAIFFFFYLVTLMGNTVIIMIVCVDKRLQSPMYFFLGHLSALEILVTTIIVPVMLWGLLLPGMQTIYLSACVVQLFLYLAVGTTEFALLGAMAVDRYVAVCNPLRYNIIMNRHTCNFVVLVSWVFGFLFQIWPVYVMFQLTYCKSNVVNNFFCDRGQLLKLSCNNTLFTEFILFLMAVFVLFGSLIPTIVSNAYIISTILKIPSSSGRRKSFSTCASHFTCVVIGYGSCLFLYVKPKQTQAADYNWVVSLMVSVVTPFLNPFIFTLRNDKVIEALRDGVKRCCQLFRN
How it was run: as §1

OR9G1 (Homo sapiens) = OR9G1 (Homo sapiens) (UniProt Q8NH87)
How it was run: as §1

OR9G4 (Homo sapiens) = OR9G4 (Homo sapiens) (UniProt Q8NGQ1)
How it was run: as §1

OR9G4 = tested on: T4, OR9G4
T4 sequence (whole entry): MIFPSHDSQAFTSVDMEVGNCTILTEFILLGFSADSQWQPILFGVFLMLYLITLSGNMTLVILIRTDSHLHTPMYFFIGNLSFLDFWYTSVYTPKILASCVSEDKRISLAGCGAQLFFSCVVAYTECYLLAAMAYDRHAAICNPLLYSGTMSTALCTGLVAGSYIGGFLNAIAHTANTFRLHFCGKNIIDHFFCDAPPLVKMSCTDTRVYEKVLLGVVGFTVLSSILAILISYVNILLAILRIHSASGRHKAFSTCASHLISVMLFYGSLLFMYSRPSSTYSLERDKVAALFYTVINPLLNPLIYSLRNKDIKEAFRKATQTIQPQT
How it was run: as §1

OR9G9 (Homo sapiens) = OR9G9 (Homo sapiens) (UniProt P0C7N8)
How it was run: as §1

OR9G9 [1] = tested on: T5, OR9G9
T5 sequence (whole entry): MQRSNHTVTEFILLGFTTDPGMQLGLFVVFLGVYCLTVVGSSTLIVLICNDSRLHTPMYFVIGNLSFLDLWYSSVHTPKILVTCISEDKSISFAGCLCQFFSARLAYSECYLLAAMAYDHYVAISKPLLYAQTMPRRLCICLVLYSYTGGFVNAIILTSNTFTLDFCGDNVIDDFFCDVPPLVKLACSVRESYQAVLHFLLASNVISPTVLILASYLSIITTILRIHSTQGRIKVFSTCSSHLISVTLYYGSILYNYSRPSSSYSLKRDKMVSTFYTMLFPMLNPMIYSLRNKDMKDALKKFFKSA
How it was run: as §1

OR9G9 [2] = tested on: T6, OR9G9; remark: listed apart in the source
T6 sequence (whole entry): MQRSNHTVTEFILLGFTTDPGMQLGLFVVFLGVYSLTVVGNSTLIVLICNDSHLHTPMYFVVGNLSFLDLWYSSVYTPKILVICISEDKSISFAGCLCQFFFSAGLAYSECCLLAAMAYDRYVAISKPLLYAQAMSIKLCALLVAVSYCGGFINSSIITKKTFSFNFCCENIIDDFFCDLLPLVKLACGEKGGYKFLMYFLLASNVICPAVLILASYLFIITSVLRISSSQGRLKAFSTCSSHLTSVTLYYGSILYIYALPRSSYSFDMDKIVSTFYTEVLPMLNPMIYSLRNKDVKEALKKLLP
How it was run: as §1

OR9K2 (Homo sapiens) = molecular target: T7, OR9K2 (Homo sapiens) (UniProt Q8NGE7)
T7 sequence (whole entry): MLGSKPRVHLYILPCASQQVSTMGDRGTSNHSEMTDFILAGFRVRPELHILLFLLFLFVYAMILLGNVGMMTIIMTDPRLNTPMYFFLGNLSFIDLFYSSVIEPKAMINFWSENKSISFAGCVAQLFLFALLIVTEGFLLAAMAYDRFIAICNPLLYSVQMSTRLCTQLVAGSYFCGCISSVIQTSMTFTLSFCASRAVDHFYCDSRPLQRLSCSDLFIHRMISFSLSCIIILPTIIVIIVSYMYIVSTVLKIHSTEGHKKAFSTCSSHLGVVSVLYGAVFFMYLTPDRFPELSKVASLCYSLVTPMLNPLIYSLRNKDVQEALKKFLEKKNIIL
How it was run: as §1

OR9Q1 (Homo sapiens) = OR9Q1 (Homo sapiens) (UniProt Q8NGQ5)
How it was run: as §1

OR9Q1 = tested on: T8, OR9Q1
T8 sequence (whole entry): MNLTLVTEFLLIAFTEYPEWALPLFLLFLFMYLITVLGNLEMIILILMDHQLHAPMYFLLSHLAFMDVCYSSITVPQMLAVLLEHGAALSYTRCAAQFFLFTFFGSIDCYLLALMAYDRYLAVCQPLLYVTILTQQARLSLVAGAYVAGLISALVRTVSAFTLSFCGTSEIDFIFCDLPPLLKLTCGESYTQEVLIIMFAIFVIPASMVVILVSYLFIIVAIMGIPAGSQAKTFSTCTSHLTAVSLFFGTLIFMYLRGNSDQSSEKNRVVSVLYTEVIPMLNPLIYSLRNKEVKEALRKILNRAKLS
How it was run: as §1

OR9Q2 (Homo sapiens) = molecular target: T9, OR9Q2 (Homo sapiens) (UniProt Q8NGE9)
T9 sequence (whole entry): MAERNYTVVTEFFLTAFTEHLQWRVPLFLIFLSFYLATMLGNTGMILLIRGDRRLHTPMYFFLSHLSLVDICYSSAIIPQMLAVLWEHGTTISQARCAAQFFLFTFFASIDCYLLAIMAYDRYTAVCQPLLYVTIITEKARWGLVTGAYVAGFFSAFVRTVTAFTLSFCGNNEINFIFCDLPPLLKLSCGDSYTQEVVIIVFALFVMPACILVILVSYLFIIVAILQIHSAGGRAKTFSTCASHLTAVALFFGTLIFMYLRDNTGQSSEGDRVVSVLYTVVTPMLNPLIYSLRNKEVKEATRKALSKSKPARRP
How it was run: as §1

OR9I1 (Homo sapiens) = molecular target: T10, OR9I1 (Homo sapiens) (UniProt Q8NGQ6)
T10 sequence (whole entry): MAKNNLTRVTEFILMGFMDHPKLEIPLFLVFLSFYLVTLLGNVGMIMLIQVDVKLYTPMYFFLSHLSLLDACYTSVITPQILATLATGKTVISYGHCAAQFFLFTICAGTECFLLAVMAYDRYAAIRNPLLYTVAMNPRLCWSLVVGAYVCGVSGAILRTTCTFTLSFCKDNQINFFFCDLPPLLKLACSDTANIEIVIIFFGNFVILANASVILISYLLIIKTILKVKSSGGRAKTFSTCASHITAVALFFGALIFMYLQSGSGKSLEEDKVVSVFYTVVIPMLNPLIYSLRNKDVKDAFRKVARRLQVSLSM
How it was run: as §1

Measured: odorant receptor agonist call

CC12C=CCC1C1CCC3CC(=O)CCC3(C)C1CC2 (centres undefined)
active: OR9G9 [1]
not listed: OR9I1 (Homo sapiens)
inactive: all other assays above

CCCCCCOC(=O)CCC
not listed: OR9A2 (Homo sapiens) | OR9G1 (Homo sapiens) | OR9G4 (Homo sapiens) | OR9G9 (Homo sapiens) | OR9Q1 (Homo sapiens)
inactive: all other assays above

CCCCCCCC=CC=O
active: OR9K2 (Homo sapiens)
not listed: OR9A2 (Homo sapiens) | OR9G1 (Homo sapiens) | OR9G4 (Homo sapiens) | OR9G9 (Homo sapiens) | OR9Q1 (Homo sapiens)
inactive: all other assays above

CC=Cc1ccc(O)c(OC)c1
active: OR9Q1
not listed: OR9A2 (Homo sapiens) | OR9G1 (Homo sapiens) | OR9G4 (Homo sapiens) | OR9G9 (Homo sapiens) | OR9Q1 (Homo sapiens)
inactive: all other assays above

CC1COCc2cc3c(cc21)C(C)(C)C(C)C3(C)C (centres undefined)
active: OR8U9 | OR9A2 | OR9A4 (Homo sapiens) | OR9G4 | OR9K2 (Homo sapiens) | OR9Q1 | OR9Q2 (Homo sapiens)
inactive: OR9G9 [1] | OR9G9 [2] | OR9I1 (Homo sapiens)

CC1=CCC(C(C)(C)O)CC1 (centres undefined)
not listed: OR9A2 (Homo sapiens) | OR9G1 (Homo sapiens) | OR9G4 (Homo sapiens) | OR9G9 (Homo sapiens) | OR9Q1 (Homo sapiens)
inactive: all other assays above

c1cnccn1
not listed: OR9A2 (Homo sapiens) | OR9G1 (Homo sapiens) | OR9G4 (Homo sapiens) | OR9G9 (Homo sapiens) | OR9Q1 (Homo sapiens)
inactive: all other assays above

CC(C)(C)c1ccc(CCC=O)cc1
not listed: OR9A2 (Homo sapiens) | OR9G1 (Homo sapiens) | OR9G4 (Homo sapiens) | OR9G9 (Homo sapiens) | OR9Q1 (Homo sapiens)
inactive: all other assays above

CC(C)=CCCC(C)=CC=O
not listed: OR9A2 (Homo sapiens) | OR9G1 (Homo sapiens) | OR9G4 (Homo sapiens) | OR9G9 (Homo sapiens) | OR9Q1 (Homo sapiens)
inactive: all other assays above

COc1ccccc1O
active: OR9A4 (Homo sapiens)
not listed: OR9A2 (Homo sapiens) | OR9G1 (Homo sapiens) | OR9G4 (Homo sapiens) | OR9G9 (Homo sapiens) | OR9Q1 (Homo sapiens)
inactive: all other assays above

CCCCCCCOC(C)=O
active: OR9A4 (Homo sapiens)
not listed: OR9A2 (Homo sapiens) | OR9G1 (Homo sapiens) | OR9G4 (Homo sapiens) | OR9G9 (Homo sapiens) | OR9Q1 (Homo sapiens)
inactive: all other assays above

O=CCc1ccccc1
not listed: OR9A2 (Homo sapiens) | OR9G1 (Homo sapiens) | OR9G4 (Homo sapiens) | OR9G9 (Homo sapiens) | OR9Q1 (Homo sapiens)
inactive: all other assays above
